Results from publication PMC5460035.
These are yes or no findings as the source states them, for the method shown. In cells and extracts the contact can be indirect. Here binding means that the protein was enriched with, or labelled near, the bait; the list need not be complete. For some assays here: Tags and fused reporters may be left off the sequences shown. One block for each substance: values may come before it.

Amino acid sequences for entries named in this document (tags omitted).
UniProt P49815: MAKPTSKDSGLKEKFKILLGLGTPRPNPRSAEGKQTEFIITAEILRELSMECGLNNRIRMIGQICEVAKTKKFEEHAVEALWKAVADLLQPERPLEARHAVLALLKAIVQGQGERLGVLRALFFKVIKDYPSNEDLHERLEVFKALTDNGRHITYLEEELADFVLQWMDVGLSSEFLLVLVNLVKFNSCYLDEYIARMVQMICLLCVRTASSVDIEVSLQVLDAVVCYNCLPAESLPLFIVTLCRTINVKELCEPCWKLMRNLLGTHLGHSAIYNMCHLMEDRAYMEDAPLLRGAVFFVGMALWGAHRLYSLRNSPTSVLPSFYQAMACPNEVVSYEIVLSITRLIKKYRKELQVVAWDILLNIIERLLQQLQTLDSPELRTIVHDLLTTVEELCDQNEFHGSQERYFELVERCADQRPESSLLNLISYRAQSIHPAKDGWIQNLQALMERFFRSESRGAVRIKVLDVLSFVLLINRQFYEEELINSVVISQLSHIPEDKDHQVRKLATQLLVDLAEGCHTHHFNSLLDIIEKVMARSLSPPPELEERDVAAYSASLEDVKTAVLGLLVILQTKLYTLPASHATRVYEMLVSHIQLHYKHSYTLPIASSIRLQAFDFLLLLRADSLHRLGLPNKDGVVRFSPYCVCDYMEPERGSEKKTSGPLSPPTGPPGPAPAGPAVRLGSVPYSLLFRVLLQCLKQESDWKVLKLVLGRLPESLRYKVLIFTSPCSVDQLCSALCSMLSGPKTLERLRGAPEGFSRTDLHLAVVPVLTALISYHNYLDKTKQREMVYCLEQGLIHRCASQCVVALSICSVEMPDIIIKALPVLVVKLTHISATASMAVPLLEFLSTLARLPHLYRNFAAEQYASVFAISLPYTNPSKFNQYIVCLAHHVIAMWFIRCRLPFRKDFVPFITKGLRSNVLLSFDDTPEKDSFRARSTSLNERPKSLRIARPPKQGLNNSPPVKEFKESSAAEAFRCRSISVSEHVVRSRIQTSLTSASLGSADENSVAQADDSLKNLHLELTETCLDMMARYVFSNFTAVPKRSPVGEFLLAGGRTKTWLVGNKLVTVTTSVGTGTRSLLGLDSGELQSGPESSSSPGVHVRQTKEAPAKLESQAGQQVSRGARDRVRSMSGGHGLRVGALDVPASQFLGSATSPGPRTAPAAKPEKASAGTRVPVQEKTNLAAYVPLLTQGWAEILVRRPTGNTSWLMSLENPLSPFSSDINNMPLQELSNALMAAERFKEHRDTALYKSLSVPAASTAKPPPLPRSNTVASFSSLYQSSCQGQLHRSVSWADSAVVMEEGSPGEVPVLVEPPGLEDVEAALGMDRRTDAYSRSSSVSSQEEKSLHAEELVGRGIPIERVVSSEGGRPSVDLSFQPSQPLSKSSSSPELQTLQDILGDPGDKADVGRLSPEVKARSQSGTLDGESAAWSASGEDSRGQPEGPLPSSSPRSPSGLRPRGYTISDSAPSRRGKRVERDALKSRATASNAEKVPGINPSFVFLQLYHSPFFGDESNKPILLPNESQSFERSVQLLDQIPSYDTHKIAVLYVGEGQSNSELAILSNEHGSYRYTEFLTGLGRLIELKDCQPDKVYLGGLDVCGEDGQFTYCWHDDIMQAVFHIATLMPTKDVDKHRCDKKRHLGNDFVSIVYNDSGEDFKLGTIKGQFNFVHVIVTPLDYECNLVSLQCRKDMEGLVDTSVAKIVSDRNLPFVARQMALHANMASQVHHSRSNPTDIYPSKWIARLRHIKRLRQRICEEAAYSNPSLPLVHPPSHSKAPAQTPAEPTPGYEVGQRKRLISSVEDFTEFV
UniProt Q9Y230: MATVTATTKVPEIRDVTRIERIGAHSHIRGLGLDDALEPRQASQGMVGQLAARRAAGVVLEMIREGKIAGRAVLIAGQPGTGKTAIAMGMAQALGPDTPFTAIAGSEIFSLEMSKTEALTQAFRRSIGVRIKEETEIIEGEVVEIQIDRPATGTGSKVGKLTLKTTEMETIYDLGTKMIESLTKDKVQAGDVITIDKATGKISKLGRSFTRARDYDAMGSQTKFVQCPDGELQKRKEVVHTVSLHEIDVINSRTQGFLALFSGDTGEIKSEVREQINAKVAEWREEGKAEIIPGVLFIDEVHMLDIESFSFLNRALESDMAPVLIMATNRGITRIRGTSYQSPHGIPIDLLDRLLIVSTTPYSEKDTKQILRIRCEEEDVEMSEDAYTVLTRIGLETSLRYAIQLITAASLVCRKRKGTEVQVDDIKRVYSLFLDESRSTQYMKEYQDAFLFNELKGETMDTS
UniProt Q9BUQ8: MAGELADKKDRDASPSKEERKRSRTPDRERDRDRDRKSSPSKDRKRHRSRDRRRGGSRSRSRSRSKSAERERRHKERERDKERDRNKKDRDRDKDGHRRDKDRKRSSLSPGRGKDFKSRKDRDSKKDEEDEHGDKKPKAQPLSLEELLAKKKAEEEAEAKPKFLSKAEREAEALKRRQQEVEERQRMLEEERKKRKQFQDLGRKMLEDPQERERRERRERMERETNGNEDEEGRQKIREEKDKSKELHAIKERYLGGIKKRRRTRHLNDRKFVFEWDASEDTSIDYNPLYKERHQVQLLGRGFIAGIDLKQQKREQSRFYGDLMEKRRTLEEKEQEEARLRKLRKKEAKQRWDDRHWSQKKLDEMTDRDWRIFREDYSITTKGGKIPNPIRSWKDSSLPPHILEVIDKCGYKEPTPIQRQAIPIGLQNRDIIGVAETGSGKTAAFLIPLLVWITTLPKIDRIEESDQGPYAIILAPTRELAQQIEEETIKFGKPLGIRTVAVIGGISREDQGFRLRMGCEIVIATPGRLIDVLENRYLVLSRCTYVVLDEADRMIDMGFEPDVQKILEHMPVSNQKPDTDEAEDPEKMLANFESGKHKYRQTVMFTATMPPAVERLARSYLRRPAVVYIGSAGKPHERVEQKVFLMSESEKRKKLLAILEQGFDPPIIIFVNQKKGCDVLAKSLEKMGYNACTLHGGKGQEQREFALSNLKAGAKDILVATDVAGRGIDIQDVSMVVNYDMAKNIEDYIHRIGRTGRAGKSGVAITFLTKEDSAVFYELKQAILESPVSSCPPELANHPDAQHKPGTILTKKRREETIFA
UniProt Q9Y5U2: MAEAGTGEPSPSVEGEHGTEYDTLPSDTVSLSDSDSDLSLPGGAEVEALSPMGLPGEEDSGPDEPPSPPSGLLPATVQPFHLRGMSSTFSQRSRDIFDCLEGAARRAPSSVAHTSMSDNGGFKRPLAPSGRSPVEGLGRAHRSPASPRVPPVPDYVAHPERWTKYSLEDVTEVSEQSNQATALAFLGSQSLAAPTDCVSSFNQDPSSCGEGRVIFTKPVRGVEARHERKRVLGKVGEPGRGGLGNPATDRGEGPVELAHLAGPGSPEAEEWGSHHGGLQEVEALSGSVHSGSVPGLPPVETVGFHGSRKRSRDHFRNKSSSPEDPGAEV
UniProt Q9Y265: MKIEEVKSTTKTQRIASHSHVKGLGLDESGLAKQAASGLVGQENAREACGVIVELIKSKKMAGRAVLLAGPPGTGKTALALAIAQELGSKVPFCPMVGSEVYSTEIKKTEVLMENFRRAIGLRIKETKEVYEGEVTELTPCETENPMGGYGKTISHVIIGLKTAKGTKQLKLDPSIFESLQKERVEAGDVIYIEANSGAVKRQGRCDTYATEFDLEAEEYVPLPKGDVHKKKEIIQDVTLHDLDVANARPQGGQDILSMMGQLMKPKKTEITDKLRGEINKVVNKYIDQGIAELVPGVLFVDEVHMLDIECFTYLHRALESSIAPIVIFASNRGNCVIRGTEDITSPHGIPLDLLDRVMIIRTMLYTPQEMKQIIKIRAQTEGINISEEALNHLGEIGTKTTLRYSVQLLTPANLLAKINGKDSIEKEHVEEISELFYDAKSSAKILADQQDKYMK
UniProt O75643: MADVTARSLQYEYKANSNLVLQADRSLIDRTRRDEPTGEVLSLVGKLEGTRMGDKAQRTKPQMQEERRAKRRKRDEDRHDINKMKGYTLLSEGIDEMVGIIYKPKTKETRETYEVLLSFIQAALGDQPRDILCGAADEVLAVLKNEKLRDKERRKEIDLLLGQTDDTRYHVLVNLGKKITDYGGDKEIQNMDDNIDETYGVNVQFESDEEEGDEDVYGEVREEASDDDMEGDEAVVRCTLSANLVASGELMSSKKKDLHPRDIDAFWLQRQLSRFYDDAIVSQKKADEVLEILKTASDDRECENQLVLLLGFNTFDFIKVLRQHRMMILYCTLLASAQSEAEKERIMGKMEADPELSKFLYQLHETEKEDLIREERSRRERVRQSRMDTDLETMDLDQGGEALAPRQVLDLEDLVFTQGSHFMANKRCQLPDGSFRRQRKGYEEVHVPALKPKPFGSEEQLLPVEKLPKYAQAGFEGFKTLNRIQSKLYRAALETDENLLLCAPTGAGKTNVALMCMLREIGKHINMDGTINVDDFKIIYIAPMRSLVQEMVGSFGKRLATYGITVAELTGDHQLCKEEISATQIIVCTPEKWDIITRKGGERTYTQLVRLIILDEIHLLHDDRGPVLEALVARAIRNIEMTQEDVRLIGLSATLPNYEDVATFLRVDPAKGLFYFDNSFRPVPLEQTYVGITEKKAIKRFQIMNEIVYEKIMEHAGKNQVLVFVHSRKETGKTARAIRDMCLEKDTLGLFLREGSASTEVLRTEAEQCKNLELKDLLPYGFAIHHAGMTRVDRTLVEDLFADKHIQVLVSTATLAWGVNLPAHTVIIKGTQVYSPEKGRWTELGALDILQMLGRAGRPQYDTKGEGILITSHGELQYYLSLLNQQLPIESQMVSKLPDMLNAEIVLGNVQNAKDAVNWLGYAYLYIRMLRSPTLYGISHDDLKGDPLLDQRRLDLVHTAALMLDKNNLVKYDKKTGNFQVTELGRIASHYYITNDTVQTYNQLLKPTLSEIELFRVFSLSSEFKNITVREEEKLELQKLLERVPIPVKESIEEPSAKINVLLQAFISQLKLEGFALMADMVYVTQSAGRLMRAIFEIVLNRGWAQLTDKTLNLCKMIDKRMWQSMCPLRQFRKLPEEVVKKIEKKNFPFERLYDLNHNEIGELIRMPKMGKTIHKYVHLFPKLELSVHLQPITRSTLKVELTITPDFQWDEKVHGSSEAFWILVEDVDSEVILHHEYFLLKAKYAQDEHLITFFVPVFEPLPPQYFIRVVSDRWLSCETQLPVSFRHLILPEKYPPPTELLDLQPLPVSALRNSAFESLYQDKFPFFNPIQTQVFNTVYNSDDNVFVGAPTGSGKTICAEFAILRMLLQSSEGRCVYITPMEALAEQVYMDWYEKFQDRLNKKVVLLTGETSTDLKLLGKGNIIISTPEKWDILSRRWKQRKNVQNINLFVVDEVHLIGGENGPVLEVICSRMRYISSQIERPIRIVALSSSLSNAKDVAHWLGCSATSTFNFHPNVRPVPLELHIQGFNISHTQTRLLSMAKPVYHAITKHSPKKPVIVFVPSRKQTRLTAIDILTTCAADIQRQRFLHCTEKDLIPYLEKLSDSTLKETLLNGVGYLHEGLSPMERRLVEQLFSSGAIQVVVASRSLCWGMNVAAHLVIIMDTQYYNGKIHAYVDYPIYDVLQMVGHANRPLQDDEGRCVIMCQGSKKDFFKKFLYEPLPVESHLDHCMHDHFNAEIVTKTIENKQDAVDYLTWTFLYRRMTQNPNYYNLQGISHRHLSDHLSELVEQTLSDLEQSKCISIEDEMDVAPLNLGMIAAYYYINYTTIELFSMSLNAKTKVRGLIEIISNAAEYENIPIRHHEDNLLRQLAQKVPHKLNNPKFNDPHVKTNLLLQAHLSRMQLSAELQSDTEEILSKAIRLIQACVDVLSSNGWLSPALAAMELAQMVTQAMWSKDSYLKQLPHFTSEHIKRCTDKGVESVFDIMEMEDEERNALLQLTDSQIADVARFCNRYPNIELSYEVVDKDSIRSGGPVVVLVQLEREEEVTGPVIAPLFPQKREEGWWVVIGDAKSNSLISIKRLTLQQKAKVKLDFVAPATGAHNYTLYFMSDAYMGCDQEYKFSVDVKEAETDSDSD

Experiments:
EFTUD2-FLAG = biological target: T1, EFTUD2-FLAG (UniProt Q15029); experiment: affinity purification with mass spectrometry; triple SILAC: FLAG-tagged bait in HEK 293 cells with control siRNA (medium) or siRNA against ZNHIT2 or RUVBL2 (heavy), untransfected cells (light) as control; anti-FLAG M2 magnetic beads, lysis buffer with 100 mM KCl and 0.1% NP-40; MaxQuant
T1 sequence: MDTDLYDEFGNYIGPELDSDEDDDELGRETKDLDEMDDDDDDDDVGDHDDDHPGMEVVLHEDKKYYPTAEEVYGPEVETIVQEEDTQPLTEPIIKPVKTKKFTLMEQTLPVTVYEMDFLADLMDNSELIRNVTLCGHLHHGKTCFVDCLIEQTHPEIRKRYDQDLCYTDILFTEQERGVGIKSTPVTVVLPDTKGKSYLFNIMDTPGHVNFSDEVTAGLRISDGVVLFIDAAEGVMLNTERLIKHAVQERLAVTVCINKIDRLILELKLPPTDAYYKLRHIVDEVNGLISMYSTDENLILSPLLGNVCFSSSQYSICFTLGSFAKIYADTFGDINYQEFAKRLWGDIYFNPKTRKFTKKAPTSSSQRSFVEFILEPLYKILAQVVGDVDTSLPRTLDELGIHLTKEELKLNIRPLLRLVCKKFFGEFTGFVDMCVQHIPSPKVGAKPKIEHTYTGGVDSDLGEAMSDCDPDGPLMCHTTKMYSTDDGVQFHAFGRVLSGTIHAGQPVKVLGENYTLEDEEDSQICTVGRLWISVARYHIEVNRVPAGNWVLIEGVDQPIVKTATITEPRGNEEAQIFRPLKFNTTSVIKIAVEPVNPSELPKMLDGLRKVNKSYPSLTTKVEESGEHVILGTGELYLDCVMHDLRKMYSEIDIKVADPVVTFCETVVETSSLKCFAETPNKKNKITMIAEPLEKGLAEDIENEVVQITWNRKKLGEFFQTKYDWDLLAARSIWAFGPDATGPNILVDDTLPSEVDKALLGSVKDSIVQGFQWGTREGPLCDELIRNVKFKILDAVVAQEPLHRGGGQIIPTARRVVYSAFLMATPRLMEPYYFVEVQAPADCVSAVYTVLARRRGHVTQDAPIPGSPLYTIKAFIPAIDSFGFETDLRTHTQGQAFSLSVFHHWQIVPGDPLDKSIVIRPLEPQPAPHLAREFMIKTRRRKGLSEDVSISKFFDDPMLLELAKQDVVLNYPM

TAP-tagged TBC1D7 = biological target: T2, TAP-tagged TBC1D7 (UniProt Q9P0N9); experiment: affinity purification with mass spectrometry; TAP-MS: TAP-tagged bait induced with 3 uM ponasterone A for 48 h in stable EcR 293 cells; IgG sepharose, TEV cleavage, calmodulin sepharose, LC-MS/MS; soluble and chromatin fractions purified separately, the fraction is not told for these hits
T2 sequence: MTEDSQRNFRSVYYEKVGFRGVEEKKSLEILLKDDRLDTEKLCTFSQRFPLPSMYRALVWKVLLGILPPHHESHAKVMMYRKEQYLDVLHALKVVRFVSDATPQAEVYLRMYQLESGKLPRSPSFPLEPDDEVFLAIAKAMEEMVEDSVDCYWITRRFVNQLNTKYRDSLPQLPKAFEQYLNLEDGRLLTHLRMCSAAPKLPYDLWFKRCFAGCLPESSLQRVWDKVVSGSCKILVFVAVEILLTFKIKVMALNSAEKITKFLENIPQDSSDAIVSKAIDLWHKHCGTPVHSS

TAP-tagged TSC1 = biological target: T3, TAP-tagged TSC1 (UniProt Q92574); experiment: as above
T3 sequence: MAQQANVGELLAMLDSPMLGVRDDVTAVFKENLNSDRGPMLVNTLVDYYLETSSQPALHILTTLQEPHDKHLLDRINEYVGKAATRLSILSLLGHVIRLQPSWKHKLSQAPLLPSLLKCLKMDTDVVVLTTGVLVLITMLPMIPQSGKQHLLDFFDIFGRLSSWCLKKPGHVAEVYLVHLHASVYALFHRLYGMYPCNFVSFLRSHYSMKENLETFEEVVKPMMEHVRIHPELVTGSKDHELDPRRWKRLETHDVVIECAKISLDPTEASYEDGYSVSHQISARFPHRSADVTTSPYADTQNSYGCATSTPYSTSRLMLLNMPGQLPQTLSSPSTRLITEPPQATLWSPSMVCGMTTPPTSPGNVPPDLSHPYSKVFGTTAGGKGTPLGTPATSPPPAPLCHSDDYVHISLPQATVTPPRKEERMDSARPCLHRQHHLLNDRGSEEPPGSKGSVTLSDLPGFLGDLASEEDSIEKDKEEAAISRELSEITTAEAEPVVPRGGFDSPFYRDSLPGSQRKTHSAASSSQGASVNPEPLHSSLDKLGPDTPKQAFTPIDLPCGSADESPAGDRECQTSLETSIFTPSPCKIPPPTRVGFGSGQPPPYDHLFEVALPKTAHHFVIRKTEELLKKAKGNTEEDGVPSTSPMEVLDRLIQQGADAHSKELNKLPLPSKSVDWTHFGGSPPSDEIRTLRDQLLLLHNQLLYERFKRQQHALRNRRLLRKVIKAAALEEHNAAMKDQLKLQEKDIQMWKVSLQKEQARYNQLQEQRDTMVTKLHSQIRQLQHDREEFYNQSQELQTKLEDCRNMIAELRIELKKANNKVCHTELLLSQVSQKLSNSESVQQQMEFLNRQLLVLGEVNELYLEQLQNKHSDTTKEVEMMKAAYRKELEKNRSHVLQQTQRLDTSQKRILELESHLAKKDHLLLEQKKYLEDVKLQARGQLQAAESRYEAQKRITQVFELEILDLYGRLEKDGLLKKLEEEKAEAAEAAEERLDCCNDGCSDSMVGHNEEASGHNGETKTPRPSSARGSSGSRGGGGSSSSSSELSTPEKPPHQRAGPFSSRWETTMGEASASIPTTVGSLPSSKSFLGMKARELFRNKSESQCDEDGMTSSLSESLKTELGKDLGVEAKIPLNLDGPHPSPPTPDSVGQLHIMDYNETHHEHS

TAP-tagged TSC2 = TAP-tagged TSC2 (UniProt P49815); experiment: as above
[1] = biological target: TAP-tagged RUVBL2 (human) (UniProt Q9Y230); experiment: affinity purification with mass spectrometry; TAP-MS as in a1, chromatin fraction (digested overnight with benzonase, RNase A and DNaseI)
TAP-tagged SLC7A6OS = biological target: T4, TAP-tagged SLC7A6OS (UniProt Q96CW6); experiment: affinity purification with mass spectrometry; TAP-MS: TAP-tagged bait induced with 3 uM ponasterone A for 48 h in stable EcR 293 cells; IgG sepharose, TEV cleavage, calmodulin sepharose, LC-MS/MS; soluble and chromatin fractions purified separately, the fraction is not told for these hits
T4 sequence: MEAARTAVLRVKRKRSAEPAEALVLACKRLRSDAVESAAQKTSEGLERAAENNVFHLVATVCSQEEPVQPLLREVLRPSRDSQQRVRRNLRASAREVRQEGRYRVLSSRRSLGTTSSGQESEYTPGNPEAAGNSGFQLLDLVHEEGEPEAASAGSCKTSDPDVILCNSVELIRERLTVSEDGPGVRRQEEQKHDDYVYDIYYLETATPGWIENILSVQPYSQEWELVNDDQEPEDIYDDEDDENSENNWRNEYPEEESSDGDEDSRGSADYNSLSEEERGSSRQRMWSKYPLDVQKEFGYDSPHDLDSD

[2] = biological target: T5, TAP-tagged ZNHIT2 (human) (UniProt Q9UHR6); experiment: as above
T5 sequence: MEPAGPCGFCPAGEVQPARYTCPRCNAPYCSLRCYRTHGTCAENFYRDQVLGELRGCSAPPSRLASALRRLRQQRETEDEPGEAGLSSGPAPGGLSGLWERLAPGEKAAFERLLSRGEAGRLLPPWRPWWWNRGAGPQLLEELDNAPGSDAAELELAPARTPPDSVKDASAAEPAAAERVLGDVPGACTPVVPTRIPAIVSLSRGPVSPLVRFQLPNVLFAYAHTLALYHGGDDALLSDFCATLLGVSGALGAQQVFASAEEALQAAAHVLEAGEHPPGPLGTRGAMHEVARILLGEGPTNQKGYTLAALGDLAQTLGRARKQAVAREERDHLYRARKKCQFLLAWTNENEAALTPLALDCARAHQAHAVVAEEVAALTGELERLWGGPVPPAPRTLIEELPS

Substance: DDX23 (from UniProt Q9BUQ8 1-820)
binding (EFTUD2-FLAG): binds

Substance: TRRAP (from UniProt Q9Y4A5 1-3859)
binding [1]: binds

Substance: TSSC4 (from UniProt Q9Y5U2 1-329)
binding (TAP-tagged SLC7A6OS): binds | binding [2]: binds

Now from value to substance:

binding (TAP-tagged TBC1D7): binds | binding (TAP-tagged TSC1): binds | binding (TAP-tagged TSC2): binds
Substance: RUVBL1 (from UniProt Q9Y265 1-456)

binding (EFTUD2-FLAG): binds
Substance: SNRNP200 (from UniProt O75643 1-2136)
